System: HCT116 cells
Experiment: Screen 1: stable 13C and 15N isotope tracing of amino acids (LC-MS)
Format: cell-based, human
Settings: 1 mM, 6 hours, QMAP; for number of metabolites that the amino acid provided with 15N nitrogen: 15N amino acid

SMILES	percentage of aspartate labeled with 13C (13C amino acid) [%]	percentage of citrate labeled with 13C (13C amino acid) [%]	percentage of fumarate labeled with 13C (13C amino acid) [%]	percentage of malate labeled with 13C (13C amino acid) [%]	number of metabolites that the amino acid provided with 13C carbon (13C amino acid)	number of metabolites that the amino acid provided with 15N nitrogen
NC(=O)C[C@H](N)C(=O)O [Asparagine, L-asparagine]	8	3	5	5		
C[C@H](N)C(=O)O [alanine, L-alanine]					more metabolites than any other amino acid	more metabolites than any other amino acid
NC(=O)CC[C@H](N)C(=O)O [glutamine, L-glutamine]					more metabolites than any other amino acid	more metabolites than any other amino acid
